The source of these data is US8735446B2, “Vanillin acetals and sensory stimulant composition containing the same” (Takasago International Corporation, priority 2005, dated 2014).

The data set relates to ten expert panelists. Kind of data set: Sensory Evaluation 1: oral evaluation of 10 ppm aqueous solutions. Further details: species or system human. The note with it: in vivo. The procedure: Compound A and Compound C obtained in Example 1 and Example 3, respectively, were subjected to oral evaluation using 10 ppm aqueous solutions of them by ten expert panelists having 5 or more year experience, and an instantaneous sensation and an intensity of warming sensation and pungent taste were evaluated on the basis of the following evaluation criteria. On the sensory evaluation, 4-(l-methoxymethyl)-2-(3′-methoxy-4′-hydroxyphenyl)-1,3-dioxolan (Comparative compound A: the compound described in JP-A-8-225564) was used as a comparative compound. The evaluation results in the table show the average value of ten panelists.
Regarding `COCC1COC(c2ccc(O)c(OC)c2)O1` (stereo not drawn) [Comparative compound A, 4-(l-methoxymethyl)-2-(3′-methoxy-4′-hydroxyphenyl)-1,3-dioxolan, reference compound], the odor result is given as “almost odorless”.

As to `CCCCOCC1COC(c2ccc(O)c(OC)c2)O1` (stereo not drawn) [Compound C, vanillin-1-butoxyglycerol acetal], the odor entry was “almost odorless”. The value for `CCCCC1COC(c2ccc(O)c(OC)c2)O1` (stereo not drawn) [Compound A, vanillin-1,2-hexylene glycol acetal] was “almost odorless”.
